{"source": "paper PMC7332104", "biological_target": "T1, Orc1-TAP (budding yeast) (UniProt P54784)", "T1 sequence": "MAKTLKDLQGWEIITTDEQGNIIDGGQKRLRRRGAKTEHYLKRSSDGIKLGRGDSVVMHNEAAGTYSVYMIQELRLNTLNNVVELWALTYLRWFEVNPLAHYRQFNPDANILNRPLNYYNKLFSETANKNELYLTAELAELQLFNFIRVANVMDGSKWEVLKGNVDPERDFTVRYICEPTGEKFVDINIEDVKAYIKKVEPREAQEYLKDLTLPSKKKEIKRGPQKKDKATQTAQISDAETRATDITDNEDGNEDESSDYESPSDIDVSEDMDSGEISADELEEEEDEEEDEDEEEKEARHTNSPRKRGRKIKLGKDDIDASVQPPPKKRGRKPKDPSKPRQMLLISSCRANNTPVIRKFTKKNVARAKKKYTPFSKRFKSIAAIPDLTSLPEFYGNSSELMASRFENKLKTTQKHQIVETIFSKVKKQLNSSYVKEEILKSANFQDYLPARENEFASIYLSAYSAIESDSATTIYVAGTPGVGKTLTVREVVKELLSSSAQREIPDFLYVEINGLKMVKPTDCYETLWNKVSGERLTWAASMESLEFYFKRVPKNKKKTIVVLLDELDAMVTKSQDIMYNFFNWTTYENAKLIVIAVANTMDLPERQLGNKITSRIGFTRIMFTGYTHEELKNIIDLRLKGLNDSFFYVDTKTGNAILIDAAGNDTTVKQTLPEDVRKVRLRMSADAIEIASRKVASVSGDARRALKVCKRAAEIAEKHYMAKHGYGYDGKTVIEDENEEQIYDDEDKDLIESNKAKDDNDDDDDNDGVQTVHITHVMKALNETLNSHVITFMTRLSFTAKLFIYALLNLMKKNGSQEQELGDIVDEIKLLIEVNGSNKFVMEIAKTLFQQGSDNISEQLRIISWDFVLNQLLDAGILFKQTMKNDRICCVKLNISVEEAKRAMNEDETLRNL", "test": "co-IP; lysates of meiotic (SPO) cultures, chromatin sheared by sonication; lysis buffer 50mM Tris-HCl pH 7.4, 150mM NaCl, 1% Triton X-100, 1mM EDTA; immunoprecipitated with α-TAP antibodies on magnetic beads; Western blot", "note": "These are yes or no findings as the source states them, for the method shown. Binding seen in cells or lysates may run through a third protein. Some entries that bind do so weakly or less than the wild type. Tags and fused reporters may be left off the sequences shown."}
{"binder": "3xFLAG-Pch2 (NH2-terminal 3xFLAG-tagged wild type version of Pch2) (enzyme, UniProt P38126 1-564) MSYIVDLQVRGSSLRVIKCMFREDEQISSLHSGSDSKQNSNKKLGEFLNLLKAVVKRKLESFPKDRLKTSIITGQELMREGQGSIEIKDPPTEAQQHLIRSLAKVLLHQFSSINGKVNTVNEGQDNLFLSLFVKKISIEQQSTSHVSIKLNFHEKINLGQHIDSILDSEETNESDTYHMGSVDEFIIYPFCCLEEQDELKNGSILSTEFDKIDLELDEDDGFEGETLNNCINSVGNFDIPLSKQTLNLVNISYLPGTTFEGQWESLYFGNNIKERLYSYATISLKIARFKQTGDSNQEDITTLITNNKLLLVHGPPGTGKTTLCKALCQKLSVRREFSDGSDTIDTNYKGIIIELSCARIFSKWFGESSKNISIVFKDIEELLKVNEGRGIFICLLIDEVEAIASSRTNLSSRNESTDGIRVVNTLLTQLDRLKKYHNFLALATSNLLDSLDDAFVDRADGVFYVGNPTAEGILHILKVCIEEMITSGIILFHARSTGVKFFNKYQDILRKIAIKCSTVDISGRTIRKLPLMCLSEYFRTFPVDDDEFVLALAMSARKLSAARK", "values": [{"measurement": "binding", "result": "binds"}]}
